Results published in the supplement of paper PMC10849652.
The other results are listed elsewhere or left out.

By UniProt entry, the sequences of proteins in these tests, tags left out. Where a name states a change or a piece, a line headed by the entry shows the natural chain unless it says otherwise.
UniProt P61966: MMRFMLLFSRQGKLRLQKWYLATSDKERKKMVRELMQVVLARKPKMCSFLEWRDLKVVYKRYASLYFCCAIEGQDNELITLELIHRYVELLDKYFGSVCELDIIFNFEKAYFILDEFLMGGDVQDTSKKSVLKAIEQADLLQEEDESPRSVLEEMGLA
UniProt Q9UJX5, whole entry, looked up: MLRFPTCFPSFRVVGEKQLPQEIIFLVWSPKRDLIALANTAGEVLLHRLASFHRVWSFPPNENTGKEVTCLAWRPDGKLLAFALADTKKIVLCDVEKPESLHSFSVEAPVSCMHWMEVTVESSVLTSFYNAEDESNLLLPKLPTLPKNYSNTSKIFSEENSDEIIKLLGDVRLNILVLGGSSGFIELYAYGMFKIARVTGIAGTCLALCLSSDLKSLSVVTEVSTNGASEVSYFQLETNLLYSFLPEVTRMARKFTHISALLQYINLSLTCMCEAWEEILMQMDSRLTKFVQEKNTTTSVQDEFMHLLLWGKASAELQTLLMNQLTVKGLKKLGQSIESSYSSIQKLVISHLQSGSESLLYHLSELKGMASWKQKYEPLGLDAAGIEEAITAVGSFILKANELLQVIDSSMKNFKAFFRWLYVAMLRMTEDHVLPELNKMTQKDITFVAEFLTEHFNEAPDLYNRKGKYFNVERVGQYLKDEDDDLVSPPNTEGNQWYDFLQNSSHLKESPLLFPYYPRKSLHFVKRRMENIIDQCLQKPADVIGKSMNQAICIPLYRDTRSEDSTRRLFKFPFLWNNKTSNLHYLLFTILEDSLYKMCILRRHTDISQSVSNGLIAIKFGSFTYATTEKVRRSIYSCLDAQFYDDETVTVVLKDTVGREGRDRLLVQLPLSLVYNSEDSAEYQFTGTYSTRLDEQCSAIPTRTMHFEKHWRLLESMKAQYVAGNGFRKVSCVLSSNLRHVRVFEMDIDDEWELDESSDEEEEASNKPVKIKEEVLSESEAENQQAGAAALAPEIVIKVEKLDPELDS
UniProt Q96PC3: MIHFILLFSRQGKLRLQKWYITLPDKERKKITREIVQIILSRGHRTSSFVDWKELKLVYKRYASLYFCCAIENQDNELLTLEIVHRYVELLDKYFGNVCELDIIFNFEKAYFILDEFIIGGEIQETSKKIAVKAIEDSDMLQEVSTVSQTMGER
UniProt Q9H6U8: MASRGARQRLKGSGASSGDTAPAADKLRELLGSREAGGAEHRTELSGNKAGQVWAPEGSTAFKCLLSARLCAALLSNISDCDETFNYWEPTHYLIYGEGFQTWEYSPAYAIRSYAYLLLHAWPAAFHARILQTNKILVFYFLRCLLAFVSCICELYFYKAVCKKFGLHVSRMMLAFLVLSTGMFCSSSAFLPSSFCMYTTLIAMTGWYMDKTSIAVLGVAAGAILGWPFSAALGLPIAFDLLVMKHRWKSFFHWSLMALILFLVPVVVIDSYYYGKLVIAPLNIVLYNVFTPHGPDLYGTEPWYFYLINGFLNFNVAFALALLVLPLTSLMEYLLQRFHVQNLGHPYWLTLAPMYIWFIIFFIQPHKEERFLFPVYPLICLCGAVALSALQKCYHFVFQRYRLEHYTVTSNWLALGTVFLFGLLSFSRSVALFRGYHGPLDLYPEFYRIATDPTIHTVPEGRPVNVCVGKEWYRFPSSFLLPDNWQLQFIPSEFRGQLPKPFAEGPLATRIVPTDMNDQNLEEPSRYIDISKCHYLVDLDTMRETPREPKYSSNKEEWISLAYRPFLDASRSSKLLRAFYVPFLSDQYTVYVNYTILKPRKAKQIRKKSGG
UniProt Q9UPS8: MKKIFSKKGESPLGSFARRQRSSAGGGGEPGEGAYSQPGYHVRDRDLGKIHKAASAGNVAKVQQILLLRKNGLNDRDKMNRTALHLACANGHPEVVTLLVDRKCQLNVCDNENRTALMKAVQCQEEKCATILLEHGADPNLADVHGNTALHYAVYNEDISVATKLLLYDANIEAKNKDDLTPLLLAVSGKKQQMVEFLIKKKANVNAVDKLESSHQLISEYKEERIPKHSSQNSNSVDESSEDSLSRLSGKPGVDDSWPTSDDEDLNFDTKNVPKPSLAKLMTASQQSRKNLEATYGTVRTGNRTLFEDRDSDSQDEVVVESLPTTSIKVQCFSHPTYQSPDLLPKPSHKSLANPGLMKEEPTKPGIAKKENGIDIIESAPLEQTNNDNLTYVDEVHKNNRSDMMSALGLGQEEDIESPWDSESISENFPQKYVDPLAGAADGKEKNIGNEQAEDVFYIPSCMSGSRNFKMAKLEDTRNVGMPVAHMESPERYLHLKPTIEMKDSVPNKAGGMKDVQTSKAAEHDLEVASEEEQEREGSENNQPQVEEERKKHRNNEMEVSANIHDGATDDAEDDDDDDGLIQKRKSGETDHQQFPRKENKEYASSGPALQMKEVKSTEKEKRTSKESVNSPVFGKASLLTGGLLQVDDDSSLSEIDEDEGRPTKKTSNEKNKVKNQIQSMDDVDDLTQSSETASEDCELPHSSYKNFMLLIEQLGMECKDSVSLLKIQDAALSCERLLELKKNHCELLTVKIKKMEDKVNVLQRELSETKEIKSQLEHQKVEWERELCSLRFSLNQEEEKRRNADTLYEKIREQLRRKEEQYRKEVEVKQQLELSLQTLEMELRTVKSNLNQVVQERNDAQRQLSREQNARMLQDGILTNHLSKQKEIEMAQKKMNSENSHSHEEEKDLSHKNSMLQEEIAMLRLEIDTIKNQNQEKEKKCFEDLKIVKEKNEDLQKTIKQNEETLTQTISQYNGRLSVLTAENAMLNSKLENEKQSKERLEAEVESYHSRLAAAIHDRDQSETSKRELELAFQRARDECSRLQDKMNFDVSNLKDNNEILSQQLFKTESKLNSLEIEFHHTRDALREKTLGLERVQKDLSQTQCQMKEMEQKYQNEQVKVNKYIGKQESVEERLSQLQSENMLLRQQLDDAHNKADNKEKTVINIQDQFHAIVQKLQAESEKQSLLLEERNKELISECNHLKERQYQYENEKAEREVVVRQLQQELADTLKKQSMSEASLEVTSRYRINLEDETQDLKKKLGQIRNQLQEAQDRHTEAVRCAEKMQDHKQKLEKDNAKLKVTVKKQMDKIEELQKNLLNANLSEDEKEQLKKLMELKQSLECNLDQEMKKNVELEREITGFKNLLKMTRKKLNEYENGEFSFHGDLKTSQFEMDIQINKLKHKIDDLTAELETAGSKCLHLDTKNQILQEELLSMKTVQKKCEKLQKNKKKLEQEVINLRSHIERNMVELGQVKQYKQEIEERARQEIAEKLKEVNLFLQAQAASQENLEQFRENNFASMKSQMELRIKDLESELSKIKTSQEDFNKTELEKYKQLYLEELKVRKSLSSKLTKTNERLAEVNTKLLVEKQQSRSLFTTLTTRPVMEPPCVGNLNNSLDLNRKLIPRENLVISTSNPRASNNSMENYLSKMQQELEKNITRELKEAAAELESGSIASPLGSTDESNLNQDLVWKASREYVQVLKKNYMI
UniProt O15084: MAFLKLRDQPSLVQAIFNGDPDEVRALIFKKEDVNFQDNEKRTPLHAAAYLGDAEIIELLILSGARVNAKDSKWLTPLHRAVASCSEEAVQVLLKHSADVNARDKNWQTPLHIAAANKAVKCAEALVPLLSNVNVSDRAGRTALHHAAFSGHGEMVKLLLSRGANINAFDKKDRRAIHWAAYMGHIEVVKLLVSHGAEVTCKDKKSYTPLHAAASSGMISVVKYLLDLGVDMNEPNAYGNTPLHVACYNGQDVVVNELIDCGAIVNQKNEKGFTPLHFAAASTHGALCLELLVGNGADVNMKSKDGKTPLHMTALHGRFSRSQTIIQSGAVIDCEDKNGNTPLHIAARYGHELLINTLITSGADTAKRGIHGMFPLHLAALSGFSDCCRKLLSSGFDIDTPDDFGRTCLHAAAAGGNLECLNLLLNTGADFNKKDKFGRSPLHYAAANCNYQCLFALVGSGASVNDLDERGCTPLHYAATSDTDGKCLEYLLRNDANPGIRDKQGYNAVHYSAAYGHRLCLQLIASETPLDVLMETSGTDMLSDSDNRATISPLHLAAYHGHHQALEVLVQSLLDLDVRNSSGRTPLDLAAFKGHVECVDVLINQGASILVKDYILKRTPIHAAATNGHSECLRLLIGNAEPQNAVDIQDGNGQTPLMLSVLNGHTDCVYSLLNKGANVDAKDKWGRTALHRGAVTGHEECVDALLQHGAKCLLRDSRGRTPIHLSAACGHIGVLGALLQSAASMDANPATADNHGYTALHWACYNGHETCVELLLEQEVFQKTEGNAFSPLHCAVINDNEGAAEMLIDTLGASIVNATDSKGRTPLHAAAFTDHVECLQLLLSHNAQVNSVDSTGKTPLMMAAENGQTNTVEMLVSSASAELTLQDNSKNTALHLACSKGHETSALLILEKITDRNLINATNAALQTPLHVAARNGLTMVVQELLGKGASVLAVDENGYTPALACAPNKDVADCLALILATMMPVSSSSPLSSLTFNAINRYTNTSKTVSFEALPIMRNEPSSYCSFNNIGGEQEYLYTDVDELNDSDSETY
UniProt P63010: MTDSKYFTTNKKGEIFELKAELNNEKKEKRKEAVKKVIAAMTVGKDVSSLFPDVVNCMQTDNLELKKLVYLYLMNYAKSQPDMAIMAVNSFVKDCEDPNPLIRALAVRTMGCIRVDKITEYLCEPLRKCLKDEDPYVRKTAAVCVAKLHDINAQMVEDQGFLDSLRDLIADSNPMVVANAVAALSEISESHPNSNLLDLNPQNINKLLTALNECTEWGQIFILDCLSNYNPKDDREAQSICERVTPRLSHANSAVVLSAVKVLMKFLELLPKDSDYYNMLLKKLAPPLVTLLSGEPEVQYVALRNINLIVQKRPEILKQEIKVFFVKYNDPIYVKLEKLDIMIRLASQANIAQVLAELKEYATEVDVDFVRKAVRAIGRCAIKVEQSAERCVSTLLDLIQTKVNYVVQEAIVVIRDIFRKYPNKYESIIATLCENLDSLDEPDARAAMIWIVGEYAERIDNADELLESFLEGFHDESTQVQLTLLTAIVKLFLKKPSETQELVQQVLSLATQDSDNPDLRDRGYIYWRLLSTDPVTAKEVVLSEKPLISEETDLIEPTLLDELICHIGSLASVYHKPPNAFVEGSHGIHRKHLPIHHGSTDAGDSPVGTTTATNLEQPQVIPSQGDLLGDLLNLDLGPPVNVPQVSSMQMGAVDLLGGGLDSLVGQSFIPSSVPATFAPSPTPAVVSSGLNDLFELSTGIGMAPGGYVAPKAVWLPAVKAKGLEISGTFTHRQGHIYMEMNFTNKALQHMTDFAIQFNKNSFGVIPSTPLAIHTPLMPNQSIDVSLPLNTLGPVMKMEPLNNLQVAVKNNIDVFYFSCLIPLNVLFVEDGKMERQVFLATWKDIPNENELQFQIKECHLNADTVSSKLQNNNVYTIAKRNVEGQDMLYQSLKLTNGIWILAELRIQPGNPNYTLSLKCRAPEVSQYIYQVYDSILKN
UniProt Q9NXW9: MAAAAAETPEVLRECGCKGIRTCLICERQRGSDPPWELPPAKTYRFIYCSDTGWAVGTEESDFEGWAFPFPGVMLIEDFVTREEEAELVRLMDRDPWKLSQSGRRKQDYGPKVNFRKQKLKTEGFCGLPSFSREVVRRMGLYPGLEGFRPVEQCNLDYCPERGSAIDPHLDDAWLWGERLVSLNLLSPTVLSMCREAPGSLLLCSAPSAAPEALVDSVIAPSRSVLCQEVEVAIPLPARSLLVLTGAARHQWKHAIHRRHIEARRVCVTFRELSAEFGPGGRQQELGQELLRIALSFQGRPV
UniProt Q8IZ83: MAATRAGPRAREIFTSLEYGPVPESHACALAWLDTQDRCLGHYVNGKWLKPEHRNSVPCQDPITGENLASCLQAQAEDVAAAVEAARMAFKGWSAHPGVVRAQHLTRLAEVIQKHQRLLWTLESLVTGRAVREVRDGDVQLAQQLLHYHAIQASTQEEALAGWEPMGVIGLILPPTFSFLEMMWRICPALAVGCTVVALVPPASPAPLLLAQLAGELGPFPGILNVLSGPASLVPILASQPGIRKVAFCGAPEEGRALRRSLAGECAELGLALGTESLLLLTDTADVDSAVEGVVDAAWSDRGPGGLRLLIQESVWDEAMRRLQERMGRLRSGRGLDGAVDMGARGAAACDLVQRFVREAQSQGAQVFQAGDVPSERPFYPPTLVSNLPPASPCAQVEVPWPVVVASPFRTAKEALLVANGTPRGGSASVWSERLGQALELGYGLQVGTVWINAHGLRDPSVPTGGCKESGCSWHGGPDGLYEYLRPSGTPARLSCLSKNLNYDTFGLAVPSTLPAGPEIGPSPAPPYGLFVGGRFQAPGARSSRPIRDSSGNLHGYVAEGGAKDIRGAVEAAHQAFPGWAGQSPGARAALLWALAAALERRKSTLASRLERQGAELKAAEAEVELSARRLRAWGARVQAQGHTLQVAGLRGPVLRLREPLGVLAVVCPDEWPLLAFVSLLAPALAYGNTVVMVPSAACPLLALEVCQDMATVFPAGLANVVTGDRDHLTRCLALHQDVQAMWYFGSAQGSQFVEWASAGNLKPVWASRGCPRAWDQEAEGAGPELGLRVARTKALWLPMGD

How the values were obtained:
Experiment in all cases: log2 fold change, soluble protein after heating vs DMSO (PISA); higher = thermal stabilisation; K562 lysate, 10 uM; active = over 0.2 and 3.5 SD of the protein, either way, in both replicates (recomputed)
ibrutinib = compound: C=CC(=O)N1CCC[C@@H](n2nc(-c3ccc(Oc4ccccc4)cc3)c3c(N)ncnc32)C1 [ibrutinib]
How it was run: (§1)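 To prepare the extract, K562 pellets were dounce-homogenised in PBS pH 7.4 with 1 mM MgCl2, giving crude material at 1 mg/mL protein. This was treated with 10 μM compound for 30 min, then heated in aliquots for 3 min over 48°C-58°C before pooling and addition of NP-40 to 0.5% at 4°C. Centrifugation at 21,000xg for 90 min left soluble protein in the supernatant, which TMTpro 16plex LC-MS/MS quantified with equalised channel sums. Results are log-two fold changes in thermal stability compared with solvent controls, from duplicates.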

[1] = compound: CC(=O)c1cnc2ccc(-c3cc(Cl)c(O)c(Cl)c3)nc2c1N[C@H]1CC[C@H](CN(C)C)CC1
How it was run: as §1

ralimetinib = compound: CC(C)(C)Cn1c(N)nc2ccc(-c3[nH]c(C(C)(C)C)nc3-c3ccc(F)cc3)nc21 [ralimetinib]
How it was run: as §1

[2] = compound: CC(C)(O)CC(=O)NCCn1ccc2ncnc(Nc3ccc(Oc4cccc(C(F)(F)F)c4)c(Cl)c3)c21
How it was run: as §1

[3] = compound: CC(C)C1=C2N=C(C=C(N2N=C1)NCC3=CC=CC=C3)NCCCCCCN
How it was run: as §1

[4] = compound: CC1=C(C(CC(=O)N1)C2=CC=C(C=C2)C(F)(F)F)C(=O)NC3=C(C=C4C(=C3)C=NN4)F
How it was run: as §1

[5] = compound: CC1=C(C2=C(C=C1)C(=O)C3=CC=CC=C3N2CCCN)C
How it was run: as §1

[6] = compound: CC1=C(C=C(C=C1)NC(=O)C2=CC(=CC=C2)C(C)(C)C#N)NC3=CC4=C(C=C3)N=CN(C4=O)C
How it was run: as §1

[7] = compound: CC1=C(C=C(C=C1)NC(=O)C2=CC(=CC=C2)N(C)C)NC(=O)C3=CC=C(C=C3)O
How it was run: as §1

[8] = compound: CC1=CC=C(C=C1)SC2=C3C=C(SC3=CN=C2)C(=O)N
How it was run: as §1

Measured: log2 fold change

AMZ2 (UniProt Q86W34)
inactive: ibrutinib -0.01 | [1] -0.028 | ralimetinib -0.007 | [2] -0.034 | [3] -0.021 | [4] 0.036 | [5] 0.005 | [6] -0.029 | [7] -0.005 | [8] -0.019

ANK1 isoform 14 (UniProt P16157)
inactive: ibrutinib 0.017 | [1] -0.001 | ralimetinib 0.049 | [2] 0.017 | [3] 0.002 | [4] -0.011 | [5] -0.035 | [6] -0.034 | [7] 0.055 | [8] 0.011

AP1B1 (UniProt Q10567)
inactive: ibrutinib 0.031 | [1] 0.002 | ralimetinib 0.012 | [2] 0.007 | [3] -0.012 | [4] -0.031 | [5] 0.019 | [6] 0.028 | [7] -0.002 | [8] 0.017

Retrieved one by one from above (2):
AP1B1 (UniProt Q10567)
inactive: ibrutinib 0.031 | [1] 0.002 | ralimetinib 0.012 | [2] 0.007 | [3] -0.012 | [4] -0.031 | [5] 0.019 | [6] 0.028 | [7] -0.002 | [8] 0.017

ANK1 isoform 14 (UniProt P16157)
inactive: ibrutinib 0.017 | [1] -0.001 | ralimetinib 0.049 | [2] 0.017 | [3] 0.002 | [4] -0.011 | [5] -0.035 | [6] -0.034 | [7] 0.055 | [8] 0.011

The listing continues.

AP1S1 (UniProt P61966)
inactive: ibrutinib 0.007 | [1] 0.002 | ralimetinib 0.051 | [2] 0.06 | [3] -0.031 | [4] -0.06 | [5] 0.016 | [6] -0.051 | [7] -0.015 | [8] 0

ANAPC4 isoform 3 (UniProt Q9UJX5)
inactive: ibrutinib 0.021 | [1] -0.019 | ralimetinib 0.028 | [2] -0.02 | [3] -0.001 | [4] 0.013 | [5] -0.003 | [6] 0.049 | [7] -0.001 | [8] -0.023

ANO6 (UniProt Q4KMQ2)
inactive: ibrutinib 0.02 | [1] -0.005 | ralimetinib 0.018 | [2] -0.011 | [3] -0.043 | [4] 0.008 | [5] 0.042 | [6] -0.002 | [7] -0.004 | [8] 0.017

AP1S3 isoform 4 (UniProt Q96PC3)
inactive: ibrutinib 0.106 | [1] 0.014 | ralimetinib 0.013 | [2] -0.099 | [3] -0.052 | [4] 0.089 | [5] 0.016 | [7] -0.068 | [8] -0.009

ALG9 isoform 3 (UniProt Q9H6U8)
inactive: ibrutinib -0.047 | [1] 0.031 | ralimetinib -0.014 | [2] 0.027 | [3] -0.096 | [4] 0.04 | [5] -0.04 | [6] -0.049 | [7] -0.021 | [8] -0.022

AP2M1 (UniProt Q96CW1)
inactive: ibrutinib -0.014 | [1] 0.022 | ralimetinib 0.007 | [2] -0.026 | [3] -0.019 | [4] -0.016 | [5] 0.002 | [6] 0.045 | [7] -0.004 | [8] 0.016

ALKBH3 (UniProt Q96Q83)
inactive: ibrutinib 0.042 | [1] 0.012 | ralimetinib -0.078 | [2] -0.031 | [3] -0.042 | [4] 0.044 | [5] -0.031 | [6] -0.045 | [7] 0.014 | [8] 0.023

ALDH1L2 (UniProt Q3SY69)
inactive: ibrutinib 0.033 | [1] 0.034 | ralimetinib 0.024 | [2] -0.038 | [3] 0.006 | [4] 0.029 | [5] -0.022 | [6] -0.028 | [7] -0.006 | [8] 0.016

ANAPC5 (UniProt Q9UJX4)
inactive: ibrutinib 0.032 | [1] -0.006 | ralimetinib 0.033 | [2] -0.074 | [3] 0.014 | [4] 0.016 | [5] -0.013 | [6] 0.024 | [7] 0.022 | [8] 0.02

AP1G2 (UniProt O75843)
inactive: ibrutinib 0.012 | [1] -0.087 | ralimetinib 0.069 | [2] 0.013 | [3] -0.121 | [4] -0.109 | [5] -0.156 | [6] -0.011 | [7] 0.023 | [8] -0.027

ALYREF (UniProt Q86V81)
inactive: ibrutinib 0.008 | [1] -0.001 | ralimetinib -0.009 | [2] 0.015 | [3] -0.06 | [4] -0.054 | [5] 0.026 | [6] -0.056 | [7] 0.025 | [8] 0.029

ANKFY1 isoform 4 (UniProt Q9P2R3)
inactive: ibrutinib -0.014 | [1] -0.014 | ralimetinib -0.002 | [2] -0.028 | [3] -0.007 | [4] 0.033 | [5] -0.004 | [6] 0.04 | [7] 0.046 | [8] -0.016

ALG8 (UniProt Q9BVK2)
inactive: ibrutinib 0.017 | [1] -0.013 | ralimetinib 0.013 | [2] 0.036 | [3] -0.028 | [4] -0.005 | [5] 0.054 | [6] 0.027 | [7] -0.011 | [8] -0.003

ANKRD26 (UniProt Q9UPS8)
inactive: ibrutinib 0.116 | [1] 0.191 | ralimetinib -0.05 | [2] 0.003 | [3] 0.003 | [4] -0.088 | [6] 0.002 | [7] 0 | [8] -0.238

ANXA6 (UniProt P08133)
inactive: ibrutinib 0.005 | [1] -0.001 | ralimetinib -0.015 | [2] -0.033 | [3] 0.004 | [4] -0.015 | [5] 0.001 | [6] -0.013 | [7] 0.025 | [8] -0.008

ANKRD28 (UniProt O15084)
inactive: ibrutinib -0.011 | [1] 0.023 | ralimetinib -0.01 | [2] -0.002 | [3] 0.017 | [4] -0.002 | [5] 0.007 | [6] 0.002 | [7] 0.003 | [8] 0.019

ALDH1B1 (UniProt P30837)
inactive: ibrutinib 0.008 | [1] 0.086 | ralimetinib 0.019 | [2] 0.02 | [3] 0.056 | [4] -0.024 | [5] -0.005 | [6] -0.018 | [7] -0.014 | [8] -0.018

ALG5 (UniProt Q9Y673)
inactive: ibrutinib 0.02 | [1] 0.01 | ralimetinib -0.04 | [2] 0.048 | [3] -0.001 | [4] -0.001 | [5] 0.042 | [6] 0.025 | [7] 0.023 | [8] 0.014

AP2B1 isoform 2 (UniProt P63010)
inactive: ibrutinib 0.003 | [1] 0.005 | ralimetinib 0.003 | [2] -0.002 | [3] -0.018 | [4] -0.022 | [5] -0.001 | [6] 0.042 | [7] -0.02 | [8] -0.008

ANKS1A (UniProt Q92625)
inactive: ibrutinib 0.032 | [1] 0.022 | ralimetinib -0.009 | [2] -0.032 | [3] 0.031 | [4] -0.002 | [5] 0.008 | [6] 0.042 | [7] -0.015 | [8] 0.008

AP3B1 (UniProt O00203)
inactive: ibrutinib 0.028 | [1] -0.023 | ralimetinib 0 | [2] -0.001 | [3] 0.018 | [4] 0.016 | [5] -0.015 | [6] 0.003 | [7] 0.028 | [8] -0.003

ANKRD49 (UniProt Q8WVL7)
inactive: ibrutinib 0.022 | [1] -0.026 | ralimetinib 0.03 | [2] -0.024 | [3] 0.012 | [4] -0.025 | [5] -0.032 | [6] 0.034 | [7] 0.018 | [8] 0.01

ALKBH4 (UniProt Q9NXW9)
inactive: ibrutinib 0.076 | [1] 0.056 | ralimetinib 0.032 | [2] 0.003 | [3] -0.031 | [4] 0.031 | [5] -0.036 | [6] 0.004 | [7] -0.006 | [8] 0.002

ANKRD27 (UniProt Q96NW4)
inactive: ibrutinib 0.016 | [1] -0.003 | ralimetinib -0.028 | [2] -0.009 | [3] 0.032 | [4] 0.033 | [5] -0.014 | [6] 0.089 | [7] 0.013 | [8] -0.102

ANKRD10 (UniProt Q9NXR5)
inactive: ibrutinib -0.076 | [1] -0.172 | ralimetinib 0.005 | [2] 0.042 | [3] -0.023 | [4] 0.046 | [5] 0.004 | [6] -0.008 | [7] 0.046 | [8] -0.085

ALDH16A1 (UniProt Q8IZ83)
inactive: ibrutinib 0.037 | [1] -0.006 | ralimetinib 0.033 | [2] 0.004 | [3] -0.046 | [4] 0 | [5] -0.036 | [6] 0.002 | [7] 0.022 | [8] -0.01

AP1M1 (UniProt Q9BXS5)
inactive: ibrutinib -0.013 | [1] 0.004 | ralimetinib 0.011 | [2] -0.01 | [3] 0 | [4] -0.011 | [5] -0.004 | [6] -0.007 | [7] 0.013 | [8] -0.004
